Reference: PubChem BioAssay AID1439 (NMMLSC, 2008)
The whole screen tested about 220,000 compounds, of which about 770 (0.35%) were called active. Inconclusive means that the source gave no clear call. Such entries were picked first, then a sample of the others. Cut-off read from the data, not from the text of the source: active = binding response below about 49% or above about 150%; inconclusive = no clear call, values can overlap the other calls; inactive = in between.

Amino acid sequences for entries named in this document (tags omitted).
UniProt P09471, whole entry, looked up: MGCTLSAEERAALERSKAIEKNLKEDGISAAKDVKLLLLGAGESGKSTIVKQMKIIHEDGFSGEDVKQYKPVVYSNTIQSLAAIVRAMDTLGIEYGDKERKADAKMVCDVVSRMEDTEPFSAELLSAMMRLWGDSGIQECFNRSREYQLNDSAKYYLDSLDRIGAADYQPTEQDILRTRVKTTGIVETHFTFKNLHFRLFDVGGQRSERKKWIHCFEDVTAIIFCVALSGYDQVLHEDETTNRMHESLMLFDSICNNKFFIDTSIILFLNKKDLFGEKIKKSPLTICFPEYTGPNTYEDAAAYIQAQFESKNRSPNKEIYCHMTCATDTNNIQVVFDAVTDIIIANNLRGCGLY

Each compound was assayed against Guanine nucleotide-binding protein G(o) subunit alpha (Homo sapiens) (UniProt P09471) (assay: RGS7-Galphao binding modulators, primary screen, biochemical, multiplexed bead flow cytometry (AID 1439;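 note: fluorescent Galphao held in activated GDP-AlF4 state binding bead-coupled RGS7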)). Details: at 10 µM, actives lie on both sides.
With `CS(=O)(=O)Oc1ccc(Br)c2cccnc12` the binding response (% of control) was inconclusive: 85.3%. `CC(=O)Nc1ccc(-c2csc(Nc3ccccn3)n2)cc1` was tested, and the binding response (% of control) was inconclusive: 115%. `COC(=O)C(Cc1cnc(Cl)s1)(C(=O)OC)c1ccc([N+](=O)[O-])cc1[N+](=O)[O-]` was tested, and the binding response (% of control) was inactive: 102%. `C/C=C(\C)C(=O)N[C@@H](C)CN1C2=NC[C@H](C(C)C)N2C[C@H]1Cc1ccc(OC)cc1` was tested, and the binding response (% of control) was inconclusive: 85.1%. `O=C(Nc1ccc2ccccc2c1)c1ccc(Cl)cc1Cl` was tested, and the binding response (% of control) was inconclusive: 107%. With `Cc1cc(NC(=O)CSc2nc(N)c(NC(=O)c3ccccc3)c(=O)[nH]2)no1` the binding response (% of control) was inconclusive: 107%. `O=C(CSc1n[nH]c(=O)n1Cc1ccco1)Nc1ccccc1Cl` was tested, and the binding response (% of control) was inconclusive: 56.8%. `COc1cc(Cl)c(C)cc1NC(=O)CN(C)Cc1cccc(OC)c1OC` was tested, and the binding response (% of control) was inconclusive: 85.4%. For `CCC(CC)c1nnc(NC(=O)c2cccnc2SC)s1`, the binding response (% of control) was inconclusive: 92.7%. With `CC(=O)Nc1ccc(NC=C(C#N)C#N)cc1` the binding response (% of control) was inconclusive: 108%. In the case of `NC(=S)N/N=C1\CCOc2ccc(Cl)cc21`, the binding response (% of control) is reported as inconclusive: 102%. In the case of `O=c1oc2ccccc2c(NCCO)c1[N+](=O)[O-]`, the binding response (% of control) is reported as inconclusive: 97.4%. In the case of `NNC(=S)Nc1c(Br)cc(F)cc1Br`, the binding response (% of control) is reported as inconclusive: 80.2%. In the case of `CCCc1c(C)[nH]c2ccc(C(=O)O)cc2c1=S`, the binding response (% of control) is reported as inconclusive: 72%. For `COc1ccc(C(CNC(=O)c2cc(SC)ccc2Cl)N(C)C)cc1` (stereo unspecified), the binding response (% of control) was inconclusive: -99.8%. With `COc1ccc(/C=N/NC(=O)C[n+]2ccccc2)c(OC)c1` the binding response (% of control) was inconclusive: 110%. With `Cc1c(NC(=O)COC(=O)c2ccc(S(=O)(=O)N3CCOCC3)cc2)c(=O)n(-c2ccccc2)n1C` the binding response (% of control) was inactive: 97.3%. For `Cc1ccc(-c2csc(-c3cc(C)on3)n2)cc1`, the binding response (% of control) was inconclusive: 107%. `COc1cccc(NC(=O)COC(=O)c2ccccc2C(=O)N2CCN(c3ccccc3)CC2)c1` was tested, and the binding response (% of control) was inconclusive: 55.7%. With `COc1cccc(CC(=O)Nc2cc(S(=O)(=O)N3CCOCC3)ccc2N2CCOCC2)c1` the binding response (% of control) was inconclusive: 97.2%. `S=C(NC1CCCC1)N1CCN(c2ncccn2)CC1` was tested, and the binding response (% of control) was inconclusive: 90.5%. With `CCCN1CCC(=O)N([C@H](CSc2ccc(C)cc2)Cc2ccccc2)CC1` the binding response (% of control) was inconclusive: 129%. For `Cn1nnnc1SCC(=O)Nc1cccc(S(=O)(=O)N2CCCC2)c1`, the binding response (% of control) was inconclusive: 94.2%. `Cc1ccc(Oc2ncccc2NC(=O)CC(CC(=O)O)c2ccccc2)c2c1CCC2` (stereo unspecified) was tested, and the binding response (% of control) was inconclusive: 102%. For `CCOC(=O)C1CCN(S(=O)(=O)c2ccc(-c3ccccn3)s2)CC1`, the binding response (% of control) was inconclusive: 145%. For `CC(=O)/C(N=Nc1cc2c(cc1[N+](=O)[O-])OCCO2)=C(\C)O`, the binding response (% of control) was inconclusive: 102%. For `CCOc1ccc(-c2cc(C(=O)OC)nc3c2c(=O)n(C)c(=O)n3C)cc1`, the binding response (% of control) was inconclusive: 101%. In the case of `CCCCNc1ccc2c3c(cccc13)C(=O)N(CCCC)C2=O`, the binding response (% of control) is reported as inconclusive: 505%. With `O=C(CCc1nc2ccccc2c(=O)[nH]1)OCCOc1ccc(Cl)cc1` the binding response (% of control) was inconclusive: 86.9%. With `O=C(NN=C(Cc1ccccc1)Cc1ccccc1)c1ccncc1` the binding response (% of control) was inconclusive: 105%. With `NNC(=O)/C(=C/c1cccs1)NC(=O)c1ccccc1Cl` the binding response (% of control) was inactive: 98.6%. For `CCCN1C=CC(=CC=C(C#N)C#N)C=C1`, the binding response (% of control) was inconclusive: 101%. In the case of `COC(=O)c1cc(NS(=O)(=O)c2ccc(C)c3ccccc23)ccc1N1CCOCC1`, the binding response (% of control) is reported as inconclusive: 95.5%. In the case of `COCCCn1c(=O)/c(=C\c2ccc(OC(F)F)c(OC)c2)s/c1=C(/C#N)C(=O)NCCOC`, the binding response (% of control) is reported as inconclusive: -33.4%. `O=C(C1=NN[C@@H]2C(=O)N(c3cccc(C(F)(F)F)c3)C(=O)[C@H]12)c1cnccn1` was tested, and the binding response (% of control) was inconclusive: 66.5%. With `CCOC(=O)c1c(/N=C/c2cccc([N+](=O)[O-])c2O)sc2c1CCC2` the binding response (% of control) was inconclusive: 152%. `Cc1cc(-n2cnc(-c3cn(C)nc3C)n2)no1` was tested, and the binding response (% of control) was inconclusive: 94.6%. For `CCc1ccc(Nc2nnc(SCC(=O)N(C)C3CCS(=O)(=O)C3)s2)cc1` (stereo unspecified), the binding response (% of control) was inconclusive: -61.6%. For `CSCC[C@H](NC(=O)CCCn1nnc2ccccc2c1=O)C(=O)O`, the binding response (% of control) was inconclusive: 91.8%. For `NC1=NC[C@@H](Cc2ccc(O)cc2)N1CCc1cc(C(F)(F)F)cc(C(F)(F)F)c1`, the binding response (% of control) was inconclusive: 108%. With `Cc1cc(C(=O)NC2CCCc3ccccc32)no1` (stereo unspecified) the binding response (% of control) was inactive: 102%. `CC1(C)C/C(=N\NC(=S)Nc2ccccc2F)c2cc(O)ccc2O1` was tested, and the binding response (% of control) was inconclusive: 54.4%. With `O=C(C1CCOCC1)N1CCC(CO)(CCc2ccccc2)CC1` the binding response (% of control) was inactive: 102%. With `O=[N+]([O-])c1ccc(OCCO)c(P(=O)(c2ccccc2)c2ccccc2)c1` the binding response (% of control) was inconclusive: 108%. In the case of `CCCCCn1c(=O)c2ccccc2n2c(CCl)nnc12`, the binding response (% of control) is reported as inconclusive: 81.4%. For `COc1ccc(/C(C)=N/NC(=O)OC(C)(C)C)cc1[N+](=O)[O-]`, the binding response (% of control) was inconclusive: -796%. In the case of `CN(C)C(=O)Nc1ccccc1`, the binding response (% of control) is reported as inconclusive: 109%. `CC(OC(=O)CCc1nc2ccccc2c(=O)[nH]1)C(=O)Nc1ccc2c(c1)OCO2` (stereo unspecified) was tested, and the binding response (% of control) was inconclusive: 57%. For `Cc1ccc2nc(NCC(=O)NN)nc(-c3ccccc3)c2c1`, the binding response (% of control) was inconclusive: 98%. With `Cc1c(N2C(=O)c3cccc4cccc(c34)C2=O)cnn1C` the binding response (% of control) was inconclusive: 10%. In the case of `CC(C)C1/C(=N/O)CC(c2ccccc2)NC1c1ccccc1` (stereo unspecified), the binding response (% of control) is reported as inconclusive: 114%. For `C[N+]1([O-])[C@@H]2Cc3cc4c(cc3[C@@H]1Cc1cc3c(cc12)OCO3)OCO4` (stereo partly specified), the binding response (% of control) was inconclusive: 126%. In the case of `O=C(CC12CC3CC(CC(Br)(C3)C1)C2)NC1=NCCS1`, the binding response (% of control) is reported as inconclusive: 102%. For `CCCc1nnc(SCC(=O)N2CCCC(C)C2)n1CCOC` (stereo unspecified), the binding response (% of control) was inactive: 94.7%. In the case of `O=C(/C=C/c1ccco1)Oc1cccc2cccnc12`, the binding response (% of control) is reported as inconclusive: 119%. For `COc1ccc(N2C(=O)c3cccc4cc(Br)cc(c34)C2=O)cc1`, the binding response (% of control) was inconclusive: 101%. With `Cc1cc(CNC(=O)Cc2ccc(F)cc2)c2ccccc2n1` the binding response (% of control) was inactive: 98%. In the case of `CC(C)n1nc(C(=O)Nc2cccc(S(=O)(=O)NCc3ccco3)c2)c2ccccc2c1=O`, the binding response (% of control) is reported as inconclusive: 119%. For `Cn1nnnc1SCC(=O)Nc1ccc2c(c1)OCCO2`, the binding response (% of control) was inconclusive: 93.2%. For `Cc1nn2c(NCCCn3ccnc3)cc(C(C)C)nc2c1-c1ccccc1`, the binding response (% of control) was inconclusive: -25.9%. With `CC(=O)N(OCc1ccc(OC(C)C)c(Cl)c1)C(C)=O` the binding response (% of control) was inconclusive: 83.5%. `CS(=O)(=O)N(CC(=O)Nc1ccccc1C(=O)N1CCOCC1)c1ccc(Cl)cc1` was tested, and the binding response (% of control) was inconclusive: 86.5%. In the case of `Cc1nc(-c2cccs2)sc1C(=O)O`, the binding response (% of control) is reported as inconclusive: 93.8%. `CCCCN(C(=O)Oc1ccccc1)C1CCS(=O)(=O)C1` (stereo unspecified) was tested, and the binding response (% of control) was inconclusive: 85.2%. `OCCNC(=S)Nc1cccc(Cl)c1Cl` was tested, and the binding response (% of control) was inconclusive: 135%. In the case of `CC(C)Nc1nc(Oc2ccc(=O)n(-c3ccccc3)n2)nc(N(C)C)n1`, the binding response (% of control) is reported as inconclusive: 92%. For `O=C(Cn1nc(C(=O)O)c2ccccc2c1=O)Nc1ccc2c(c1)OCO2`, the binding response (% of control) was inconclusive: -114%. With `COC(=O)c1cn(NC(=O)c2ccc(OC)c([N+](=O)[O-])c2)c(=O)c2ccccc12` the binding response (% of control) was inconclusive: 112%. `O=C(NCc1ccco1)C1CC2CCC1C2` (stereo unspecified) was tested, and the binding response (% of control) was inactive: 135%. With `CCOC(=O)c1sc(NC(=O)CSC(=S)N2CCOCC2)nc1C` the binding response (% of control) was inconclusive: 97.1%. For `CCNC(=S)Nc1ccc(NC(=O)c2ccccc2O)cc1`, the binding response (% of control) was inconclusive: 156%. `COCCCNC(=O)C1CCN(c2ccc(N3CCOCC3)nn2)CC1` was tested, and the binding response (% of control) was inconclusive: 117%. In the case of `CC(C)(C)C(=O)Nc1c(Br)c(C2CC2)nn1-c1ccccc1`, the binding response (% of control) is reported as inconclusive: 109%. With `O=[N+]([O-])c1ccc2c(c1N1CCCCC1)=NC1(CCCCC1)[N+]=2[O-]` the binding response (% of control) was inconclusive: -152%. `O=[N+]([O-])c1ccc(C[n+]2cc(-c3ccc(Cl)c(Cl)c3)n3c2CCCCC3)cc1` was tested, and the binding response (% of control) was inconclusive: 126%. For `COc1ccc(S(=O)(=O)N2CCCCC2)cc1NC(=O)c1ccc(=O)[nH]c1`, the binding response (% of control) was inconclusive: 106%. `O=C(CNC(=S)N(CCCN1CCOCC1)Cc1cccs1)NC1CCCCC1` was tested, and the binding response (% of control) was inconclusive: 95.8%. With `NC(=O)NC(=O)CSc1nc2cc([N+](=O)[O-])ccc2n1-c1cccc(C(F)(F)F)c1` the binding response (% of control) was inconclusive: 98.6%. In the case of `CSC1=NNC(c2ccc(C(C)(C)C)cc2)=NN1`, the binding response (% of control) is reported as inconclusive: 149%. `COCC(C)n1c(SCC(=O)c2cc(C)n(C)c2C)nc2ccccc2c1=O` (stereo unspecified) was tested, and the binding response (% of control) was inactive: 107%. In the case of `COc1ccc(N2CCN(C(=O)c3cccc4nc(C)oc34)CC2)cc1`, the binding response (% of control) is reported as active: 18.5%. In the case of `CC1(C)CN(c2ccc(C(=O)c3ccccc3)cc2)C1=O`, the binding response (% of control) is reported as inconclusive: 78%. In the case of `CC1=NCCN1CCNC(=O)Nc1ccc(C(C)(C)C)cc1`, the binding response (% of control) is reported as inconclusive: 113%. In the case of `O=C(N/N=C/c1cc2c(cc1Br)OCO2)c1c[nH]c2ccccc12`, the binding response (% of control) is reported as inconclusive: 88.9%. In the case of `COc1ccc(C(=O)NNC(=O)C(=O)Nc2ccc(C)c(Cl)c2)cc1`, the binding response (% of control) is reported as inconclusive: 110%. `Cc1ccc(NNC(=O)Nc2ccc(Cl)cc2)nn1` was tested, and the binding response (% of control) was inconclusive: 46.8%. With `COc1ccc(Cl)cc1NC(=O)c1cc(-c2ccc(C)cc2O)n[nH]1` the binding response (% of control) was inconclusive: -298%. For `Cc1ccsc1/C=N\NC(=O)CC(=O)NCc1ccccc1`, the binding response (% of control) was inconclusive: 108%. In the case of `CCOC(=O)C1(Cc2ccc(OC)cc2)CCN(C(=O)C2=CCCC2)CC1`, the binding response (% of control) is reported as inactive: 92.6%. `Cc1cc2n(n1)C(c1ccccc1)CC(c1ccc(Br)cc1)=N2` (stereo unspecified) was tested, and the binding response (% of control) was inactive: 107%. For `Cc1c(C(=O)c2ccccc2)c2ccccn2c1CCC#N`, the binding response (% of control) was inconclusive: 111%.
